Results: patent publication US9868695B2 (priority 2014, dated 2018)
For at least one compound, name, drawing or mass did not settle the structure.

Assays:
[1] = test system: P-gp; assay: P-gp induction assay, rhodamine123 (Rh123) cell exclusion method in LS-180 cells; conditions: LS180 cells, Rh123 accumulation, in words
Method: All synthesized compounds were screened for their ability to induce P-gp by using rhodamine123 (Rh123) cell exclusion method. In this method, the P-gp function was evaluated in terms of rhodamine 123 (Rh123) accumulation and efflux. Briefly, the protocol used is as follows: Colorectal LS-180 cells (ECACC type, purchased from Sigma, Cat. no. 87021202, cell passage no. 52) were seeded at a density of 2×10^4 per well of 96 well plate and were allowed to grow for next 24 h. Cells were further incubated with the test compounds, and were diluted to a final concentration of 100 nM and rifampicin (standard) to a final concentration of 10 μM in complete media for 48 h. The final concentration of DMSO was kept at 0.1%. Drugs were removed and cells were incubated with HANKS buffer for 40 minutes before further incubation with HANKS buffer (containing 10 μM of Rh123 as a P-gp substrate) for 90 minutes. At the end of Rh123 treatment cells were washed four times with cold PBS followed by cell lysis for 1 h by using 200 μl of lysis buffer (0.1% Triton X-100 and 0.2 N NaOH). A total of 100 μl of lysate was used for reading fluorescence of Rh123 at 485 nm/529 nm. Samples were normalized by dividing fluorescence of each sample with total protein present in the lysate. […] EC50 was determined by plotting fluorescence of Rh123 against concentration of compound.

[2] = test system: microtubules in HCT-116 cells; assay: Effect of compounds on microtubules, confocal microscopy; type: cell-based, Human; conditions: 100 nM, 24 h, anti-α-tubulin staining, compared to control
Method: For detection of tubulins, HCT-116 cells (1×10^5 cells/well) were seeded on to 18 mm square cover slips in six well plates in complete medium. […] After the treatment period, cells were fixed in 4% paraformaldehyde for 10 min at room temperature and permeabilized using 0.5% Triton-X in PBS for 5 min. The cells were blocked with 10% goat serum for 20 min at room temperature. Microtubules were detected with a monoclonal α-tubulin antibody (Sigma, Catalogue number: T9026) diluted 1:100 in 0.1% Triton X-100 in PBS for 1 h at room temperature and Alexa Fluor 488 conjugated secondary antibody (Invitrogen) diluted 1:500 in PBS for 1 h at room temperature. Cells were then washed three times in PBS and stained with 4′,6-diamidino-2-phenylindole (DAPI 1 μg/ml in PBS). The cover slips were mounted over glass slides and cells were imaged by a laser scanning confocal microscope (Olympus Fluoview FV1000). The promising candidates identified through P-gp screening and antiproliferative screening were further studied for tubulin polymerization inhibition activity.

Question: How did the P-gp induction activity [1] turn out when `COc1cc2c(c(OC)c1OC)-c1ccc(N3CCC(c4ccccc4)CC3)c(=O)cc1C(NC(C)=O)CC2` [Compound 1d, N-[(7S)-1,2,3-Timethoxy-9-oxo-10-(4-phenyl-piperidin-1-yl)-5,6,7,9-tetrahydrobenzo[a]heptalen-7-yl]acetamide] was run?
Answer: The P-gp induction activity was “complete loss of P-gp induction activity”.

Question: And the “disruption of microtubule assembly” value [2]?
Answer: Its value is “remarkable disruption and loss of microtubules”.
